# For at least one entry, the source does not settle the construct or the ends of the probe. A negative result means that nothing was seen under these conditions.
# Test system: AmtR (Mycobacterium smegmatis)
# Experiment: pull-down
sequence,measurement,value
ACGACAUUAUAUGGUCGGA [RNA oligo 1],binding result,no binding

# Reference: paper doi:10.1101/388728
